Assay results published in the supplement of paper PMC10849652.
Some of the results follow.

The chains behind the UniProt entries cited, without tags or fusion partners. Where a name states a change or a piece, a line headed by the entry shows the natural chain unless it says otherwise.
UniProt P53667: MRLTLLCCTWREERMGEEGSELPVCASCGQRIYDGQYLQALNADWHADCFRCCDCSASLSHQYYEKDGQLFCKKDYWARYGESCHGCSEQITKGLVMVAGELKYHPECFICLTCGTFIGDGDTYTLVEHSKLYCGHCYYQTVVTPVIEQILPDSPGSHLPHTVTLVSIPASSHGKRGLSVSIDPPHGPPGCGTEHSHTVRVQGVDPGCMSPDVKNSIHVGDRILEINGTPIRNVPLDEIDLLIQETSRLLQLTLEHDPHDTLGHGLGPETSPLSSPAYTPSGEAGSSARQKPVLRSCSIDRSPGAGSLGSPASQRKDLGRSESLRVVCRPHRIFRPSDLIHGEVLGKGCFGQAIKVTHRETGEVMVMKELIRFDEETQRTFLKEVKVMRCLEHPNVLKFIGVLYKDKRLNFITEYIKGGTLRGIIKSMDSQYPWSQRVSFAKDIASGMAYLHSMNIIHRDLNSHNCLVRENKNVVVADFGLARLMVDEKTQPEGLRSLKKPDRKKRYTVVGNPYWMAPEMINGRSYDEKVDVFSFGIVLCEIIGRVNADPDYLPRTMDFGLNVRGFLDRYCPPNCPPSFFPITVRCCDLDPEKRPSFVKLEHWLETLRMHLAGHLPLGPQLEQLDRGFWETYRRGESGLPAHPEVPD
UniProt Q9Y546: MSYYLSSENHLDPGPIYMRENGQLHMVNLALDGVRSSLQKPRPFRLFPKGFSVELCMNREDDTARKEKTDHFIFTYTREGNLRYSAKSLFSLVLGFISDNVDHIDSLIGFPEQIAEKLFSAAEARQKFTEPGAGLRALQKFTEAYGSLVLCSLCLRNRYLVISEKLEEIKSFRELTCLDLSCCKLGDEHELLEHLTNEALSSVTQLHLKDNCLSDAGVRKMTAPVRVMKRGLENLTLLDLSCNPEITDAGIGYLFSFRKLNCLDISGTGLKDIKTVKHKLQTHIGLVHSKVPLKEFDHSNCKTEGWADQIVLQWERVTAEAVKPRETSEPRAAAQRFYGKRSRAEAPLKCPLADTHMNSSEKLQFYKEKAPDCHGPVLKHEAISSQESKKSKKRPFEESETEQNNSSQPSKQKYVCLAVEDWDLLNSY
UniProt Q5SW96: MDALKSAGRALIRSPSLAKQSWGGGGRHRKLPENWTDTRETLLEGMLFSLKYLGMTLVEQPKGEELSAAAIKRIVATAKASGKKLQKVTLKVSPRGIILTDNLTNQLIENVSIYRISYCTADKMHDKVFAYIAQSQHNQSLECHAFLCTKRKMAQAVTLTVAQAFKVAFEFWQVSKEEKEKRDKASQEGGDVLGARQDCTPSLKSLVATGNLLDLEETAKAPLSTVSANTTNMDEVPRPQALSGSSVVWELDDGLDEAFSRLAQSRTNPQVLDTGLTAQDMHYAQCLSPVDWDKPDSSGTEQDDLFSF
UniProt P28300: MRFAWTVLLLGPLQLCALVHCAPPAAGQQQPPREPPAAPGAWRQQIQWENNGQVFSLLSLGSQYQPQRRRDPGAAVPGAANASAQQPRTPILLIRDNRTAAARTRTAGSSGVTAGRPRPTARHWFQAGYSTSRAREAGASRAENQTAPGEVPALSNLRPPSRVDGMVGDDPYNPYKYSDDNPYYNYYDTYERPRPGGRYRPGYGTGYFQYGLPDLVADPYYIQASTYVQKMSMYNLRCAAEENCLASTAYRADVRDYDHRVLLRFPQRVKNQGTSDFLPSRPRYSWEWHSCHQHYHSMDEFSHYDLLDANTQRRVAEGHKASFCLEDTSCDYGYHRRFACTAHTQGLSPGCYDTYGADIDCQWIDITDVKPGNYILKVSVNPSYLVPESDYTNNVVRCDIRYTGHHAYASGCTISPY
UniProt Q15345: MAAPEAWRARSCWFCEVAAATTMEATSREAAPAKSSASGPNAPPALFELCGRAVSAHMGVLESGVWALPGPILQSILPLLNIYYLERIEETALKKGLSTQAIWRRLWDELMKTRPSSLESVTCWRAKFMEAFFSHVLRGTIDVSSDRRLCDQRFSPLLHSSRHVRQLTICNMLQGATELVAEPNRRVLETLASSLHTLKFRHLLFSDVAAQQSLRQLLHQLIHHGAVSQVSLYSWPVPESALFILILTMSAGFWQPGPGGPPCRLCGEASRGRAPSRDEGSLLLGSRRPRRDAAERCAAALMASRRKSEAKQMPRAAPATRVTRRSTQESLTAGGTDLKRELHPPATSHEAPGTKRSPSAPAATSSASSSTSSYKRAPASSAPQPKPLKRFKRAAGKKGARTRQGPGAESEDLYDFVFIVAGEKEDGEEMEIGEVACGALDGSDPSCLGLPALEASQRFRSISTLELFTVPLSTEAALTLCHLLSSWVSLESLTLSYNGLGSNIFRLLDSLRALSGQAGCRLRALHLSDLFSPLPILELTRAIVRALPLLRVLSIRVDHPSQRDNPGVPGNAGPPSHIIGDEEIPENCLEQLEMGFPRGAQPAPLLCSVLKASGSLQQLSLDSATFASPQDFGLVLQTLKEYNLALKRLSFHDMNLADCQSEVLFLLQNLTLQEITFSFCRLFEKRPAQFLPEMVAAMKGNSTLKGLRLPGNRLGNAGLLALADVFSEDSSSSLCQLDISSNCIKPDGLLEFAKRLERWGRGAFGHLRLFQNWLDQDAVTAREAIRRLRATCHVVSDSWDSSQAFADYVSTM
UniProt P48059, whole entry, looked up: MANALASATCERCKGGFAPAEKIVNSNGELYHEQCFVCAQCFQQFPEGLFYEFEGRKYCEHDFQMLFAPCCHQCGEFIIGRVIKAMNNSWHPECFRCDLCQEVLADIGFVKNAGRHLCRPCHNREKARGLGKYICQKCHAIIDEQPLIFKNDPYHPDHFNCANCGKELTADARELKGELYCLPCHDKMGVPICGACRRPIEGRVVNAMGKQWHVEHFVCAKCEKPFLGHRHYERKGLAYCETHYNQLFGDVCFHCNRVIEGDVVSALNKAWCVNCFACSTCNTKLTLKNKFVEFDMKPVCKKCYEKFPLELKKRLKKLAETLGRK
UniProt P02545: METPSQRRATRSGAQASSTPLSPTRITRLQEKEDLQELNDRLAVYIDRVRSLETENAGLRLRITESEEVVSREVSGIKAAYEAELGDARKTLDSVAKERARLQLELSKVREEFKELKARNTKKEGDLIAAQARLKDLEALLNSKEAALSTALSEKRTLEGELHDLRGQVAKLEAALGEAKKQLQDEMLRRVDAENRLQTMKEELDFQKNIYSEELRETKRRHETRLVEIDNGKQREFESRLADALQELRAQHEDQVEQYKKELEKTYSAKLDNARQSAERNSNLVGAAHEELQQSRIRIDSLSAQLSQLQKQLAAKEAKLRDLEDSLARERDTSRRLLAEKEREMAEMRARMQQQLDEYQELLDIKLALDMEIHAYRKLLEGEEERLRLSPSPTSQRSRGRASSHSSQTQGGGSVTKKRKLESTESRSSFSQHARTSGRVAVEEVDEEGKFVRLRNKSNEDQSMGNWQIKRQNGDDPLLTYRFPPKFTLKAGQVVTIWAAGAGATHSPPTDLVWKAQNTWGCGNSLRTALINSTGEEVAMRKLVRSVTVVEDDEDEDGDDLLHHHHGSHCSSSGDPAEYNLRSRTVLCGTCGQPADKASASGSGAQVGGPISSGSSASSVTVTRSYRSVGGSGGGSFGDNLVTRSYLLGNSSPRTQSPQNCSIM
UniProt A6NK58: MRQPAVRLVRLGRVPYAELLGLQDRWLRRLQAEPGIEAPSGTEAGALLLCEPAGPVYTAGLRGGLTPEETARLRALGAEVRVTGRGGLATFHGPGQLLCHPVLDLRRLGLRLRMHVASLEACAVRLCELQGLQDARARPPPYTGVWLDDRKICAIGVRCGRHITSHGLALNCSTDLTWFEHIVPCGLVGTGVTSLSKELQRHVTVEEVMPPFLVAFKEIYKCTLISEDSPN
UniProt Q9BQE6: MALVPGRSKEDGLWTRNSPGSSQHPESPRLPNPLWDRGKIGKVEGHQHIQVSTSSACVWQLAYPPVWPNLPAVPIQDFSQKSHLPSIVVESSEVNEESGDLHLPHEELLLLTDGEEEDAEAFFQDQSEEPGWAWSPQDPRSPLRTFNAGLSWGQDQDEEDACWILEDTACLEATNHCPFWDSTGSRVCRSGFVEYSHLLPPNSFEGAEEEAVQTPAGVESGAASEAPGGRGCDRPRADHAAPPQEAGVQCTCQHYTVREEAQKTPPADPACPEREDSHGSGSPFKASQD
UniProt Q93052: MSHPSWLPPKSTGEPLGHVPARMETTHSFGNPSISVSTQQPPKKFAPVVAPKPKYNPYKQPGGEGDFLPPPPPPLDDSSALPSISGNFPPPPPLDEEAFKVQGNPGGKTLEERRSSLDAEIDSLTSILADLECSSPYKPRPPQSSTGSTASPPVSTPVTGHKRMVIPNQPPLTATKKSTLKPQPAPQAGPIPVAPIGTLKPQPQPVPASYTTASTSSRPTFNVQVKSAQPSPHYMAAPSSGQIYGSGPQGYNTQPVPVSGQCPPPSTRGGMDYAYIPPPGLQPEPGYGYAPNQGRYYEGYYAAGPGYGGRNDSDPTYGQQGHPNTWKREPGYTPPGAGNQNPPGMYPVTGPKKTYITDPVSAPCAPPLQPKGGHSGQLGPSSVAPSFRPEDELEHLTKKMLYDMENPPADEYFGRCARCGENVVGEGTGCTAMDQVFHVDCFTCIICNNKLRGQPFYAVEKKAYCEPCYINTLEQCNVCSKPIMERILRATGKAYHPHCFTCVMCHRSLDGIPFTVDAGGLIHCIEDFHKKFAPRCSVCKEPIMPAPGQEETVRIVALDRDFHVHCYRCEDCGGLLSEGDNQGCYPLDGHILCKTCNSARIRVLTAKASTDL
UniProt Q9H9Z2: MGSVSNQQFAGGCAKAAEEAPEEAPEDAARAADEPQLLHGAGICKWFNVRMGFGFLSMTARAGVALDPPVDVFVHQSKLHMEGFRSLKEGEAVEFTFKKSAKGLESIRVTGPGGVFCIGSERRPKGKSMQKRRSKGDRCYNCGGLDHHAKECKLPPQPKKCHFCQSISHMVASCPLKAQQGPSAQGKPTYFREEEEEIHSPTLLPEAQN
UniProt Q86WU2: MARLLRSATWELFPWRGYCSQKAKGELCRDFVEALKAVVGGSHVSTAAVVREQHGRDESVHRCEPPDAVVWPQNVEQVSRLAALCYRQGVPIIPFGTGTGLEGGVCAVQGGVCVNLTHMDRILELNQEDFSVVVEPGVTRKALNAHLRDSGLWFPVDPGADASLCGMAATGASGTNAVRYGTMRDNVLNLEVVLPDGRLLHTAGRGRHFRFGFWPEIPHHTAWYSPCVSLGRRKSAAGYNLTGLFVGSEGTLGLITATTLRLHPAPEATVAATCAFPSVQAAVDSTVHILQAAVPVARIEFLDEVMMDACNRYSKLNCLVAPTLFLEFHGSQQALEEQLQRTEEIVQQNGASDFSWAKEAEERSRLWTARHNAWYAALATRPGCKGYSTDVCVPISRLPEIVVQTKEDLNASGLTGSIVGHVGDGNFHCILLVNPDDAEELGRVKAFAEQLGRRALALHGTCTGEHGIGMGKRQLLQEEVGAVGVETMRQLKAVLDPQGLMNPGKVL
UniProt Q5T7N2: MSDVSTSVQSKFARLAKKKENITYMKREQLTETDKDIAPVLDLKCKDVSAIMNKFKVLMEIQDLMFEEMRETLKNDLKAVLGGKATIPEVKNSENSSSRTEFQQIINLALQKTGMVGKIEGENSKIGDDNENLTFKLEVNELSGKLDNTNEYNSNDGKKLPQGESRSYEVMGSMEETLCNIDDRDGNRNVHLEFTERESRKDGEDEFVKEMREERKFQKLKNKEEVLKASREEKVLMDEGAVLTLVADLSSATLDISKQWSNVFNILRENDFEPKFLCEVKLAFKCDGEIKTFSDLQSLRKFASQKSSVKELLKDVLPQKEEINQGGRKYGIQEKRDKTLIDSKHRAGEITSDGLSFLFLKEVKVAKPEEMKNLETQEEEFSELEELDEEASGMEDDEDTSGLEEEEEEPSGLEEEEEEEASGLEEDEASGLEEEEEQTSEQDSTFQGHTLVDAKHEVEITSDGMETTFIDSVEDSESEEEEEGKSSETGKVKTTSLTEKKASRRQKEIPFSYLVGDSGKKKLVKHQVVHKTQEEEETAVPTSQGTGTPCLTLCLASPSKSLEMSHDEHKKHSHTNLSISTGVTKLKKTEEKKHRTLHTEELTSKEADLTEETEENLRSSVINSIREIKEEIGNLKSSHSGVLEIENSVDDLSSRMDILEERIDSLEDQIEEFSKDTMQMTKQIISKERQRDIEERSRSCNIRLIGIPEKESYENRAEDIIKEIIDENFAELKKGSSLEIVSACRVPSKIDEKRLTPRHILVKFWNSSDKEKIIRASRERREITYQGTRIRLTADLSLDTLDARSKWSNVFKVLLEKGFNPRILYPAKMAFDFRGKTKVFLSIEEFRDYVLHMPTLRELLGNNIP
UniProt Q13571: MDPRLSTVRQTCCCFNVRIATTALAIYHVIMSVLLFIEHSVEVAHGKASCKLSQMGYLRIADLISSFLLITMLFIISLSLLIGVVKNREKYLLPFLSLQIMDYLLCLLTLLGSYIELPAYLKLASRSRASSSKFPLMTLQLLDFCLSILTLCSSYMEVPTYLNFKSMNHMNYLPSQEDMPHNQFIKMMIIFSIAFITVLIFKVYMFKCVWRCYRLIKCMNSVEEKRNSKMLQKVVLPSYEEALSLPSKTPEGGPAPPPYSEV

Tests used:
Assay in all cases: log2 fold change, soluble protein after heating vs DMSO (PISA); higher = thermal stabilisation; K562 cells, 10 uM, 30 min; active = over 0.2 and 3.5 SD of the protein, either way, in both replicates (recomputed)
volasertib = compound: CC[C@@H]1C(=O)N(C)c2cnc(Nc3ccc(C(=O)N[C@H]4CC[C@H](N5CCN(CC6CC6)CC5)CC4)cc3OC)nc2N1C(C)C [volasertib]
Procedure, shortened: (§1)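 K562 cells at 2×10^6 cells/mL were treated with 10 μM compound for 30 min. Aliquots were heated for 3 min across 48°C-58°C, pooled, and extracted in PBS with 0.5% NP-40 at 4°C; soluble protein was the supernatant after 21,000xg for 90 min. Soluble protein was quantified by TMTpro 16plex LC-MS/MS with channel sums equalised, and reported as log2 fold change in thermal stability against DMSO controls, with values from duplicates.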

[1] = compound: CCn1c(C(=O)N(C2CC2)C2CC2)cc2c3c(ncn3C)c(Nc3cc(C)n(C)n3)nc21
Procedure, shortened: as §1

[2] = compound: CCn1cc(-c2ccnc3[nH]c(-c4cccc(CN(C)C)c4)cc23)c(-c2ccc(NC(=O)N(C)C)cc2)n1
Procedure, shortened: as §1

[3] = compound: CN1CCC(CNc2ccc3ncc(-c4cccc(OC(F)(F)F)c4)n3n2)CC1
Procedure, shortened: as §1

sotrastaurin = compound: CN1CCN(c2nc(C3=C(c4c[nH]c5ccccc45)C(=O)NC3=O)c3ccccc3n2)CC1 [sotrastaurin]
Procedure, shortened: as §1

[4] = compound: CNC(=O)C1=CC=CC=C1NC2=NC(=NC=C2Cl)NC3=C(C=C(C=C3)N4CCOCC4)OC
Procedure, shortened: as §1

[5] = compound: CC[C@H](C)N1C=C(C2=C(C=C(C=C21)C3=CN=C(C=C3)N4CCNCC4)C(=O)NCC5=C(C=C(NC5=O)C)C)C
Procedure, shortened: as §1

epoxomicin = compound: CC[C@H](C)[C@@H](C(=O)N[C@@H]([C@@H](C)O)C(=O)N[C@@H](CC(C)C)C(=O)[C@]1(CO1)C)NC(=O)[C@H]([C@@H](C)CC)N(C)C(=O)C [epoxomicin]
Procedure, shortened: as §1

rosiglitazone = compound: CN(CCOC1=CC=C(C=C1)C[C@H]2C(=O)NC(=O)S2)C3=CC=CC=N3 (racemic) [rosiglitazone]
Procedure, shortened: as §1

Tubastatin A = compound: CN1CCc2c(c3ccccc3n2Cc2ccc(C(=O)NO)cc2)C1 [Tubastatin A]
Procedure, shortened: as §1

[6] = compound: CN(C)CC(=O)Nc1ccc2[nH]c(=O)c3ccccc3c2c1
Procedure, shortened: as §1

[7] = compound: CN1C2=C(C3=C1C(=O)N(N=C3)CC4=CC(=CC=C4)N)SC(=C2)S(=O)C
Procedure, shortened: as §1

saracatinib = compound: CN1CCN(CCOc2cc(OC3CCOCC3)c3c(Nc4c(Cl)ccc5c4OCO5)ncnc3c2)CC1 [saracatinib]
Procedure, shortened: as §1

alvocidib = compound: CN1CC[C@H](c2c(O)cc(O)c3c(=O)cc(-c4ccccc4Cl)oc23)[C@H](O)C1 [alvocidib]
Procedure, shortened: as §1

defactinib = compound: CNC(=O)c1ccc(Nc2ncc(C(F)(F)F)c(NCc3nccnc3N(C)S(C)(=O)=O)n2)cc1 [defactinib]
Procedure, shortened: as §1

[8] = compound: CNc1nc(-c2ccc3c(N)n[nH]c3c2)cc(N2C[C@@H](C(=O)NC3CCCCC3)CC[C@H]2C)n1
Procedure, shortened: as §1

[9] = compound: COC(=O)[C@H](CCSC)NC(=O)C1=C(C=C(C=C1)NC[C@H](CS)N)C2=CC=CC=C2
Procedure, shortened: as §1

Measured: log2 fold change

LIN37 (UniProt Q96GY3)
inactive: volasertib -0.038 | [1] -0.044 | [2] -0.03 | [3] -0.106 | sotrastaurin 0.031 | [4] -0.216

LDHC (UniProt P07864)
inactive: [5] -0.041 | epoxomicin 0.523 | rosiglitazone 0.335 | sotrastaurin -0.045

LIMK1 (UniProt P53667)
inactive: volasertib -0.209 | epoxomicin -0.3 | rosiglitazone 0.091 | sotrastaurin 0.117 | Tubastatin A -0.345

LATS1 (UniProt O95835)
inactive: [2] -0.001 | [3] -0.037

LAMA5 (UniProt O15230)
inactive: [5] -0.065 | epoxomicin -0.117 | [1] -0.012 | [2] 0.053 | [6] -0.172 | [7] 0.224 | [3] -0.203 | saracatinib -0.114 | alvocidib 0.051 | Tubastatin A 0.126 | [4] -0.186 | defactinib 0.194 | [8] 0.099 | [9] 0.102

LRRC42 (UniProt Q9Y546)
inactive: [1] -0.117 | [2] -0.028 | [6] -0.063 | rosiglitazone -0.034 | [7] -0.028 | [3] -0.243 | saracatinib 0.153 | alvocidib 0.069 | Tubastatin A 0 | [4] 0.135 | defactinib 0.076 | [8] 0.062 | [9] 0.011

LDLRAP1 (UniProt Q5SW96)
inactive: [4] -0.014

LOX (UniProt P28300)
inactive: [5] -0.191 | [4] -0.303

LRRC41 (UniProt Q15345)
inactive: volasertib -0.395 | [1] -0.036 | rosiglitazone 0.292 | sotrastaurin -0.336 | [4] 0.058

LIMS1 (UniProt P48059)
inactive: rosiglitazone -0.084

LMNA isoform 2 (UniProt P02545)
inactive: Tubastatin A 0.052

LIMS1 isoform 5 (UniProt P48059)
inactive: alvocidib 0.275

LAMC1 (UniProt P11047)
inactive: [2] -0.202 | [7] -0.207 | [3] -0.118 | saracatinib 0.041 | [8] 0.187

LIPT2 (UniProt A6NK58)
inactive: epoxomicin 0.087 | [6] -0.039 | [7] 0.031 | saracatinib 0.039 | sotrastaurin -0.297 | Tubastatin A 0.016 | defactinib -0.08 | [8] -0.081 | [9] 0.172

LBHD1 (UniProt Q9BQE6)
inactive: alvocidib -0.022

LPP (UniProt Q93052)
inactive: [5] -0.401 | epoxomicin -0.289 | rosiglitazone 0.282 | sotrastaurin 0.141

LARGE2 (UniProt Q8N3Y3)
inactive: sotrastaurin 0.007

LAMA2 (UniProt P24043)
inactive: [5] -0.099 | [1] -0.169 | rosiglitazone -0.141 | alvocidib 0.087 | [4] -0.253

LIN28A (UniProt Q9H9Z2)
inactive: [2] -0.098 | rosiglitazone -0.049 | [7] -0.082 | [3] -0.042 | saracatinib 0.039 | sotrastaurin 0.078 | alvocidib -0.284 | [8] -0.039

LDHD (UniProt Q86WU2)
inactive: [1] 0.057 | alvocidib -0.075 | [4] 0.096

L1TD1 (UniProt Q5T7N2)
inactive: [2] -0.394 | [7] 0.075 | [3] -0.016 | saracatinib -0.155 | alvocidib 0.062 | Tubastatin A 0.079 | [8] -0.193

LAPTM5 (UniProt Q13571)
inactive: [2] 0.119 | rosiglitazone 0.076 | [7] 0.214 | [3] -0.091 | saracatinib 0.105 | alvocidib 0.18 | Tubastatin A -0.143 | [8] -0.138

LAPTM4A (UniProt Q15012)
inactive: sotrastaurin -0.052

LAMB2 (UniProt P55268)
inactive: volasertib -0.011 | [7] 0.061 | saracatinib -0.205 | Tubastatin A 0.156 | [8] 0.048

Reprinted from the listing (7 entries):
LMNA isoform 2 (UniProt P02545)
inactive: Tubastatin A 0.052

LIMS1 isoform 5 (UniProt P48059)
inactive: alvocidib 0.275

LAMC1 (UniProt P11047)
inactive: [2] -0.202 | [7] -0.207 | [3] -0.118 | saracatinib 0.041 | [8] 0.187

LIPT2 (UniProt A6NK58)
inactive: epoxomicin 0.087 | [6] -0.039 | [7] 0.031 | saracatinib 0.039 | sotrastaurin -0.297 | Tubastatin A 0.016 | defactinib -0.08 | [8] -0.081 | [9] 0.172

LBHD1 (UniProt Q9BQE6)
inactive: alvocidib -0.022

LPP (UniProt Q93052)
inactive: [5] -0.401 | epoxomicin -0.289 | rosiglitazone 0.282 | sotrastaurin 0.141

LARGE2 (UniProt Q8N3Y3)
inactive: sotrastaurin 0.007
